Source: publication PMC12646145

Target: T1, cathepsin G (UniProt P08311)
T1 sequence: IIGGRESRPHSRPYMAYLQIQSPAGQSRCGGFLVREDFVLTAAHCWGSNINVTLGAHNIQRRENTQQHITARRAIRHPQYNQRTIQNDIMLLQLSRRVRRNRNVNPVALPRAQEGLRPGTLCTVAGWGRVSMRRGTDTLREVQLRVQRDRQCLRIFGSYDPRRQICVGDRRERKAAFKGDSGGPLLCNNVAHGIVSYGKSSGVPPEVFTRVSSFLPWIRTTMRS
Assay: SDS-PAGE of SERPIN-protease inhibitory complex; 0.9 uM protease and 2.25 uM SERPIN (2:5 molar ratio), 22 C, 300 rpm; chymotrypsin 2 min, trypsin 1 min, cathepsin G 5 min; quenched with reducing Laemmli buffer, boiled 95 C 10 min; complex seen as a band of higher molecular weight than SERPIN or protease; both purified

SERPINA3-2 (Neotoma macrotis SERPINA3 paralog)
binding: no binding (tested: 2.25 uM SERPIN, 0.9 uM protease)

SERPINA3-4 (Neotoma macrotis SERPINA3 paralog)
binding: no binding (tested: 2.25 uM SERPIN, 0.9 uM protease)

SERPINA3-12 (Neotoma macrotis SERPINA3 paralog)
binding: binds

SERPINA3-7 (Neotoma macrotis SERPINA3 paralog)
binding: no binding (tested: 2.25 uM SERPIN, 0.9 uM protease)

SERPINA3-5 (Neotoma macrotis SERPINA3 paralog)
binding: binds

SERPINA3-10 (Neotoma macrotis SERPINA3 paralog)
binding: binds

SERPINA3-11 (Neotoma macrotis SERPINA3 paralog)
binding: no binding (tested: 2.25 uM SERPIN, 0.9 uM protease)

SERPINA3-1 (Neotoma macrotis SERPINA3 paralog)
binding: no binding (tested: 2.25 uM SERPIN, 0.9 uM protease)

SERPINA3-6 (Neotoma macrotis SERPINA3 paralog)
binding: no binding (tested: 2.25 uM SERPIN, 0.9 uM protease)

SERPINA3-8 (Neotoma macrotis SERPINA3 paralog)
binding: binds

SERPINA3-3 (Neotoma macrotis SERPINA3 paralog), E. coli-expressed
binding: binds

SERPINA3-9 (Neotoma macrotis SERPINA3 paralog)
binding: no binding (tested: 2.25 uM SERPIN, 0.9 uM protease)

These are yes or no findings as the source states them, for the method shown. Binding calls can cover weak binding; strength is not graded here.
